The list shows a part of the results. This data set is noisy: repeats of one test often differ as much as different tests do.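 Cells: ReNCell VM human fetal ventral-midbrain neural progenitors, differentiated mitogen-free. Blinded raters compared doublecortin-stained (early neurons) or tyrosine hydroxylase-stained (dopaminergic neurons) images with untreated wells, where 0 means no change. After repeats and both raters were averaged, compounds scoring 2 or above became hits for retesting.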 Where a SMILES comes first, the peptide text is derived from it. Bridges are numbered along the chain shown (N, C = ends). [ ]: non-standard residue; d: D form. The star is where a group is joined. Ileψ(thiazoline)Cys = CC[C@H](C)[C@H](N)C1=N[C@H](C(=O)*)CS1; dOrn = NCCC[C@@H](N)C(=O)O
Tests used:
ReNCell VM [1] = assay: neuronal differentiation score (DCX+ cell fraction vs untreated, manual image score) (score (-3 to 3)); higher = more neuronal differentiation; conditions: 2 uM, 2 weeks
ReNCell VM [2] = assay: dopaminergic neuron differentiation score (TH+ cell fraction vs untreated, manual image score) (score (0 to 3)); higher = more TH+ dopaminergic neuron differentiation; conditions: 2 uM, 4 weeks, BDNF 10 ng/ml + GDNF 10 ng/ml

Structure (SMILES) | neuronal differentiation score (ReNCell VM [1]; library: LOPAC) | dopaminergic neuron differentiation score (ReNCell VM [2]; library: LOPAC) | neuronal differentiation score (ReNCell VM [1]; library: Spectrum) | dopaminergic neuron differentiation score (ReNCell VM [2]; library: Spectrum)
COc1cc(OC)c(C=C2C(=O)Nc3ccccc32)c(OC)c1 | inactive: 1 | inactive: 0 | – | –
CC[C@H](C)[C@H](N)C1=N[C@H](C(=O)N[C@@H](CC(C)C)C(=O)N[C@H](CCC(=O)O)C(=O)N[C@H](C(=O)N[C@H]2CCCCNC(=O)[C@H](CC(N)=O)NC(=O)[C@@H](CC(=O)O)NC(=O)[C@H](Cc3cnc[nH]3)NC(=O)[C@@H](Cc3ccccc3)NC(=O)[C@H]([C@@H](C)CC)NC(=O)[C@@H](CCCN)NC2=O)[C@@H](C)CC)CS1 ({Ileψ(thiazoline)Cys}-L[dE]IK[dOrn]I[dF]H[dD]N; lactam 4-C) | – | – | inactive: 0 | inactive: 0
COc1cc2c(cc1OC)[C@@H](c1ccccc1)CN(C)CC2 | inactive: 0 | inactive: 0 | – | –
C[N+](C)(C)CCOC(N)=O | – | – | inactive: 0 | inactive: 0
